Experimental data published in paper doi:10.1101/2020.06.09.141986.

Protein sequences, listed by entry. Tags and fused reporters are not part of them. Lines headed by an entry give the natural chain unless they say otherwise; changes in a name come on top.
UniProt P31749: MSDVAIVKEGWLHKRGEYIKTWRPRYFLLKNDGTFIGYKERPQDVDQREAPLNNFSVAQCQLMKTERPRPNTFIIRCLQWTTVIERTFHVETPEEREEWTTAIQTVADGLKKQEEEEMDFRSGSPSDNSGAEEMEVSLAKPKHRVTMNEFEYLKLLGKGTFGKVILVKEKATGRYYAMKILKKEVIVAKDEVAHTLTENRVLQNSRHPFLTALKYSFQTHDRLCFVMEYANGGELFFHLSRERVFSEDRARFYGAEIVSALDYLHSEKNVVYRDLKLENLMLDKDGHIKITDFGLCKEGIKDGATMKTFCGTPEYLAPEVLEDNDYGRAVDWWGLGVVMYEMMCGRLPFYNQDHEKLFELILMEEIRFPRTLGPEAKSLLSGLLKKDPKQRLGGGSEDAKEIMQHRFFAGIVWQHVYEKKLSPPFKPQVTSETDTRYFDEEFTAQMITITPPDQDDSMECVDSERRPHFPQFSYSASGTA
UniProt P67775: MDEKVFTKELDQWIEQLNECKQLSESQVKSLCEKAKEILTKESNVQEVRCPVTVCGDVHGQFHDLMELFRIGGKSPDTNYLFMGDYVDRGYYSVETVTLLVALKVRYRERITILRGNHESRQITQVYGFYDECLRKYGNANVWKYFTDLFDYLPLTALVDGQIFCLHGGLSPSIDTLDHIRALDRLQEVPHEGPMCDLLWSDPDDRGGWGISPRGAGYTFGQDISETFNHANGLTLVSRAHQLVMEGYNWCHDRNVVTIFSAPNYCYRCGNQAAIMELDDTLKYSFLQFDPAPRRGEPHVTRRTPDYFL

Biological target: GST-Akt1 (UniProt P31749)
Assay: pull-down

Substance: Flag-PP2AC (from UniProt P67775)
- binding: binds

No constants are given. Whether binding was seen depends on the method and setting. Binding seen in cells or lysates may run through a third protein. A result given as binding can be weak or reduced; the word gives no strength.
